{"source": "PubChem BioAssay AID1508588 (Peter MacCallum Cancer Centre, 2020)", "screen": "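Which gene losses make BRAF-mutant melanoma cells more responsive to vemurafenib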 (primary screen)", "system": "human WM266.4 melanoma cells (BRAF V600 mutant)", "reagent": "siRNA pool against human genes, 40 nM", "duration": "96 h from transfection to read-out", "treatment": "vemurafenib 300 nM (about IC25), added 48 h after transfection, for 48 h; comparison arm got DMSO vehicle only", "read-out": "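Ratios to non-targeting siRNA for cell gain, counted as DAPI nuclei after minus before drug and averaged over two replicates, and for absorbance-read medium lactate per cell; both binned into fold-change classes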", "scale": "cell gain with vemurafenib: higher = more cell gain than with non-targeting siRNA; lactate per cell with vemurafenib: higher = more lactate made per cell", "rule for the call": "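Enhancement is called by pairing each knock-down's vehicle-arm and drug-arm fold-change classes for viability or glycolysis; which class combinations qualify is not given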", "calls": "active = enhances vemurafenib effect; inactive = no enhancement seen", "note": "The whole screen tested about 18,000 reagents; shown is a part drawn at random. 790 of them (4.4%) were called active. 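Calls rest on a combination of fold-change classes in drug and vehicle arms, not all shown here.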"}
{"gene": "XKR9", "cell gain with vemurafenib": 0.98, "lactate per cell with vemurafenib": 0.56, "outcome": "inactive"}
{"gene": "ISYNA1", "cell gain with vemurafenib": 1.41, "lactate per cell with vemurafenib": 0.5, "outcome": "inactive"}
{"gene": "PCDH10", "cell gain with vemurafenib": 1.31, "lactate per cell with vemurafenib": 0.56, "outcome": "inactive"}
{"gene": "ZNF547", "cell gain with vemurafenib": -0.15, "lactate per cell with vemurafenib": 0.89, "outcome": "inactive"}
{"gene": "RLIG1", "cell gain with vemurafenib": 0.44, "lactate per cell with vemurafenib": 0.11, "outcome": "inactive"}
{"gene": "ABITRAM", "cell gain with vemurafenib": 0.96, "lactate per cell with vemurafenib": 0.86, "outcome": "inactive"}
{"gene": "COMMD3", "cell gain with vemurafenib": 0.6, "lactate per cell with vemurafenib": 1.06, "outcome": "inactive"}
{"gene": "MFGE8", "cell gain with vemurafenib": 0.25, "lactate per cell with vemurafenib": 1.77, "outcome": "inactive"}
{"gene": "EMSY", "cell gain with vemurafenib": 0.43, "lactate per cell with vemurafenib": 1.44, "outcome": "inactive"}
{"gene": "ABCA4", "cell gain with vemurafenib": 1.6, "lactate per cell with vemurafenib": 0.67, "outcome": "inactive"}
{"gene": "TOP1MT", "cell gain with vemurafenib": 0.52, "lactate per cell with vemurafenib": 1.71, "outcome": "inactive"}
{"gene": "NCOR2", "cell gain with vemurafenib": 1.05, "lactate per cell with vemurafenib": 0.65, "outcome": "inactive"}
{"gene": "LSM4", "cell gain with vemurafenib": 0.47, "lactate per cell with vemurafenib": 1.18, "outcome": "inactive"}
{"gene": "NKX6-3", "cell gain with vemurafenib": 0.55, "lactate per cell with vemurafenib": 0.97, "outcome": "inactive"}
{"gene": "DPYSL2", "cell gain with vemurafenib": 0.35, "lactate per cell with vemurafenib": 0.18, "outcome": "active"}
{"gene": "ZNF548", "cell gain with vemurafenib": 0.48, "lactate per cell with vemurafenib": 1, "outcome": "inactive"}
{"gene": "MROH5", "cell gain with vemurafenib": 0.78, "lactate per cell with vemurafenib": 1.32, "outcome": "inactive"}
{"gene": "YWHAZ", "cell gain with vemurafenib": 0.4, "lactate per cell with vemurafenib": 1.75, "outcome": "inactive"}
{"gene": "FSD2", "cell gain with vemurafenib": 0.53, "lactate per cell with vemurafenib": 0.72, "outcome": "inactive"}
{"gene": "ARFGAP2", "cell gain with vemurafenib": 0.55, "lactate per cell with vemurafenib": 0.58, "outcome": "inactive"}
{"gene": "EIF5B", "cell gain with vemurafenib": 0.35, "lactate per cell with vemurafenib": 0.52, "outcome": "inactive"}
{"gene": "MAN2B1", "cell gain with vemurafenib": 0.64, "lactate per cell with vemurafenib": 0.86, "outcome": "inactive"}
{"gene": "BAG4", "cell gain with vemurafenib": 0.68, "lactate per cell with vemurafenib": 1.27, "outcome": "inactive"}
{"gene": "KIF22", "cell gain with vemurafenib": 0.52, "lactate per cell with vemurafenib": 1.35, "outcome": "inactive"}
{"gene": "KCNK17", "cell gain with vemurafenib": 0.77, "lactate per cell with vemurafenib": 0.9, "outcome": "inactive"}
{"gene": "DUSP28", "cell gain with vemurafenib": 0.21, "lactate per cell with vemurafenib": 2.68, "outcome": "inactive"}
{"gene": "MMP19", "cell gain with vemurafenib": 0.57, "lactate per cell with vemurafenib": 1.03, "outcome": "inactive"}
